Key:
[1] = Bitter reduction of a bitter substance solution (caffeine), panel of experts; assay type: in vivo; conditions: 50 ppm substance + 500 ppm caffeine
Excerpt: To quantify the reduction (i.e. the masking or reduction) of the bitter sensation in a sample, the bitterness of a solution containing 500 ppm of caffeine was compared by a panel of experts in each case with a sample which contained 500 ppm of caffeine and additionally 50 ppm or 100 ppm of a substance to be assessed (in respect of the bitter-reduction ability) (grading: 1 [not bitter] to 10 [extremely bitter]).
For the evaluation, i.e. the calculation of the reduction (in %) of the bitter sensation, the mean values of the assessments by the panel of experts of the caffeine solution and the sample, to be compared, containing caffeine and a substance to be assessed were used in each case. In this respect, 2,4-dihydroxybenzoic acid (2,4-DHB) was used as the comparison (reference) according to U.S. Pat. No. 5,643,941.

[2] = in vivo; cited from earlier work

COc1cc(C2CCc3ccc(O)cc3O2)ccc1O (centres unmarked) [compound 3, 4′,7-dihydroxy-3″-methoxyflavan]
Observations on the sensory analysis of the sample [1]: Slightly tart,

COc1ccc(C2CCc3c(O)cc(O)cc3O2)cc1O (centres unmarked) [compound 15, 3′,5,7-trihydroxy-4′-methoxyflavan]
primary taste [2]: primary sweet taste

COc1ccc(C2CCc3ccc(O)cc3O2)cc1O (racemic) [compound 2, 3′,7-dihydroxy-4′-methoxyflavan]
Observations on the sensory analysis of the sample [1]: Sweet,
primary taste [2]: primary sweet taste

COc1cc(C2CCc3c(O)cc(O)cc3O2)ccc1O (centres unmarked) [compound 16, 4′,5,7-trihydroxy-3′-methoxyflavan]
Observations on the sensory analysis of the sample [1]: smoother,
